Test results reported in PMC6513997.
Results are given in words; binding and its absence hold for the method and conditions named. Binding seen in cells or lysates may run through a third protein. Some results given as binding are weak or reduced against the parent protein; the word gives no strength.

By UniProt entry, the sequences of proteins in these tests, tags left out.
UniProt Q15910: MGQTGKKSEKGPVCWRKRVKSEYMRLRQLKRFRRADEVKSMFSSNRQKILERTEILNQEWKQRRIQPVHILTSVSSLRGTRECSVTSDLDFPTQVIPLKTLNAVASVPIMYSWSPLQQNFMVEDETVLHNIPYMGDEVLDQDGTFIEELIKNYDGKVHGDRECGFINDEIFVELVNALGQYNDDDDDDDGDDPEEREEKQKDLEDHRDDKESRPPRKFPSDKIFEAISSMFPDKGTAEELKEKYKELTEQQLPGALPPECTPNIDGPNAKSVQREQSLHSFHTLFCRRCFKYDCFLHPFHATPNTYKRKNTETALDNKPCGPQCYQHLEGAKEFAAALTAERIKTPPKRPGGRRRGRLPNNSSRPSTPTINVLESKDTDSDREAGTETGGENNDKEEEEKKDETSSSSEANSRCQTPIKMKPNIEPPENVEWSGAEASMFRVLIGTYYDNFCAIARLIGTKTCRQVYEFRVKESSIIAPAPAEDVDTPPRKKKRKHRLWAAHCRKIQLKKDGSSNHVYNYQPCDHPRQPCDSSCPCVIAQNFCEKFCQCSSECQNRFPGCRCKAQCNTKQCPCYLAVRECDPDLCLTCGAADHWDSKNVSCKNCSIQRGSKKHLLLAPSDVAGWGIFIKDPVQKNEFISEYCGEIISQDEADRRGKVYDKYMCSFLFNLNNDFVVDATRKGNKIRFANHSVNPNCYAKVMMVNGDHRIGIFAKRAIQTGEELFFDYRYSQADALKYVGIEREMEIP

Molecular target: FLAG-tagged EZH2 (in U2OS cells) (UniProt Q15910)
Test: co-IP; FLAG-tagged EZH2 immunoprecipitated from U2OS cells, endogenous EZHIP detected

B1: endogenous EZHIP (U2OS cells) (protein, UniProt Q86X51 1-503)
chain: MATQSDMEKEQKHQQDEGQGGLNNETALASGDACGTGNQDPAASVTTVSSQASPSGGAALSSSTAGSSAAAATSAAIFITDEASGLPIIAAVLTERHSDRQDCRSPHEVFGCVVPEGGSQAAVGPQKATGHADEHLAQTKSPGNSRRRKQPCRNQAAPAQKPPGRRLFPEPLPPSSPGFRPSSYPCSGASTSSQATQPGPALLSHASEARPATRSRITLVASALRRRASGPGPVIRGCTAQPGPAFPHRATHLDPARLSPESAPGPARRGRASVPGPARRGCDSAPGPARRGRDSAPVSAPRGRDSAPGSARRGRDSAPGPALRVRTARSDAGHRSTSTTPGTGLRSRSTQQRSALLSRRSLSGSADENPSCGTGSERLAFQSRSGSPDPEVPSRASPPVWHAVRMRASSPSPPGRFFLPIPQQWDESSSSSYASNSSSPSRSPGLSPSSPSPEFLGLRSISTPSPESLRYALMPEFYALSPVPPEEQAEIESTAHPATPPEP
binding: binds
